{"source": "paper PMC7862700", "note": "Only a part is listed here, and it is no random draw. At the low end of the ranking the order means little."}
{"molecular_target": "T1, ELK1 (UniProt P19419)", "T1 sequence": "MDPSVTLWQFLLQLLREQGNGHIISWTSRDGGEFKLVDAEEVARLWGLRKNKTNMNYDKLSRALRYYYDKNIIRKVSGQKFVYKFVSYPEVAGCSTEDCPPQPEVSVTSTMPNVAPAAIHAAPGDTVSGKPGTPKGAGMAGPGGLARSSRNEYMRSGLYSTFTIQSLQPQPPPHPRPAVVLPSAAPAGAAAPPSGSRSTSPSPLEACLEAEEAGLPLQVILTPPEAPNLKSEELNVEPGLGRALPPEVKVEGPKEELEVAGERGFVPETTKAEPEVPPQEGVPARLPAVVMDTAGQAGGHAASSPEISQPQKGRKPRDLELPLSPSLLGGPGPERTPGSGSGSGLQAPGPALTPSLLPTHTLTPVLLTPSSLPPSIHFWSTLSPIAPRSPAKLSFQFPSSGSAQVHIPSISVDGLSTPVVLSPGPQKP", "assay": "DAPPL (digital affinity profiling via proximity ligation, sequencing)", "details": "10 mM Tris-HCl pH 7.5, 50 mM NaCl, 1 mM DTT, 4% glycerol, room temperature, 30 min; GST-TFs on glutathione beads, 16-mer random dsDNA library, 0.1% …; high values mean tight binding; double strand, one strand shown; scale: fold enrichment (6-mer frequency, TF over GST control)"}
{"sequence": "CCGTGC", "binding signal": 0.593}
{"sequence": "GGGCCG", "binding signal": 0.593}
{"sequence": "GTCGAG", "binding signal": 0.444}
{"sequence": "GACTAG", "binding signal": 0.812}
{"sequence": "CGTCGG", "binding signal": 0.457}
{"sequence": "AGGTGA", "binding signal": 0.631}
{"sequence": "CGGCGA", "binding signal": 0.737}
{"sequence": "GTGAAG", "binding signal": 0.524}
{"sequence": "TGGACG", "binding signal": 0.782}
{"sequence": "CGGACA", "binding signal": 0.765}
{"sequence": "ATGGAG", "binding signal": 0.529}
{"sequence": "CGTAAG", "binding signal": 0.741}
{"sequence": "AGGCAA", "binding signal": 0.731}
{"sequence": "GCCATG", "binding signal": 0.872}
{"sequence": "TAGGCG", "binding signal": 0.627}
{"sequence": "ATTGGA", "binding signal": 0.863}
{"sequence": "TGGCGG", "binding signal": 0.74}
{"sequence": "GGGTCT", "binding signal": 0.921}
{"sequence": "GTCGTC", "binding signal": 0.759}
{"sequence": "CAGGCG", "binding signal": 0.293}
{"sequence": "AGCGGT", "binding signal": 0.696}
{"sequence": "GCGTAA", "binding signal": 0.859}
{"sequence": "GGGCAA", "binding signal": 0.837}
{"sequence": "GAGGAC", "binding signal": 0.628}
{"sequence": "CGAGGA", "binding signal": 0.686}
{"sequence": "TCAGTC", "binding signal": 0.603}
{"sequence": "GTCGGA", "binding signal": 0.153}
{"sequence": "GGAGGG", "binding signal": 0.327}
{"sequence": "GGCCAC", "binding signal": 0.959}
{"sequence": "GGGCAC", "binding signal": 0.76}
{"sequence": "GGAGGC", "binding signal": 0.23}
{"sequence": "GGTTGG", "binding signal": 0.845}
{"sequence": "CGGGGG", "binding signal": 0.507}
{"sequence": "TGGGAG", "binding signal": 0.407}
{"sequence": "TGTCGT", "binding signal": 0.971}
{"sequence": "TCGCAG", "binding signal": 0.907}
{"sequence": "GCTGAG", "binding signal": 0.654}
{"sequence": "CCAGAG", "binding signal": 0.623}
